From paper PMC6748134
No constants are given. Whether binding was seen depends on the method and setting. In cells and extracts the contact can be indirect. Binding can be weak; no strength is given.

Target: T1, Bicaudal D homolog 1 (human (endogenous in UCB-MSCs)) (UniProt Q96G01)
T1 sequence: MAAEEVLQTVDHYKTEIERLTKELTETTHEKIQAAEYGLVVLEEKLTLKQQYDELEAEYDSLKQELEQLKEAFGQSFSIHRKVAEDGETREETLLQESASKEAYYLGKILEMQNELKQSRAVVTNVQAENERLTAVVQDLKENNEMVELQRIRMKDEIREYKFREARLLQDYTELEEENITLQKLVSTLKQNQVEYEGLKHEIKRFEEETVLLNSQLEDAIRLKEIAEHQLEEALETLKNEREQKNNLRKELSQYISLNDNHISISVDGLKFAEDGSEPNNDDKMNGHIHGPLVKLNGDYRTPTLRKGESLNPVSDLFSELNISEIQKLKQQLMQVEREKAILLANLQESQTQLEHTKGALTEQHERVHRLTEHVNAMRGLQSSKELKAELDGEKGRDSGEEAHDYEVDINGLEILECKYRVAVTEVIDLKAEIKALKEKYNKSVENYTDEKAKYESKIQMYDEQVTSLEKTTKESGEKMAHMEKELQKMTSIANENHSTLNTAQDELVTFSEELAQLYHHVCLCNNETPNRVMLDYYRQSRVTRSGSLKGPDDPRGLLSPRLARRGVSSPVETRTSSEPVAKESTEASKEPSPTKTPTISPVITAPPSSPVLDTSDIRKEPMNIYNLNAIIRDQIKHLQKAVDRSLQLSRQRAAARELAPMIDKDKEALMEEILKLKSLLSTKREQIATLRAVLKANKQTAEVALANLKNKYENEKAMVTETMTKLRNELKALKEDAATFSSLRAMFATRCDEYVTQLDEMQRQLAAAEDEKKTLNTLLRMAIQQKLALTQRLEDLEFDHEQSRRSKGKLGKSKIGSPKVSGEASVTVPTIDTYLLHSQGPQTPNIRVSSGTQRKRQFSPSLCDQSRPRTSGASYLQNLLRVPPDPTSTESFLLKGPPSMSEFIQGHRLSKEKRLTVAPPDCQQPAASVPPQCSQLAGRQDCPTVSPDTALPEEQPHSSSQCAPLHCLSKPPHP
Assay: co-IP; UCB-MSC lysates (20 mM Tris-HCl pH 8.0, 137 mM NaCl, 1% Nonidet P-40, 2 mM EDTA); primary antibody on Protein G magnetic beads, 6 h at 4 C; western blot; cells under normoxia or hypoxia 24 h, in some panels with MG132, wortmannin, ciliobrevin D, CoCl2 or NT siRNA

binding | Substance
binds | Akt (human (endogenous in UCB-MSCs))
binds | α-Tubulin (human (endogenous in UCB-MSCs))
